This passage reports binding results from doi:10.1101/2021.07.02.450821.

For assay [1], the target named is T1, FLAG-tagged Ballchen (BALL) (Drosophila) (UniProt Q7KRY6).
T1 sequence: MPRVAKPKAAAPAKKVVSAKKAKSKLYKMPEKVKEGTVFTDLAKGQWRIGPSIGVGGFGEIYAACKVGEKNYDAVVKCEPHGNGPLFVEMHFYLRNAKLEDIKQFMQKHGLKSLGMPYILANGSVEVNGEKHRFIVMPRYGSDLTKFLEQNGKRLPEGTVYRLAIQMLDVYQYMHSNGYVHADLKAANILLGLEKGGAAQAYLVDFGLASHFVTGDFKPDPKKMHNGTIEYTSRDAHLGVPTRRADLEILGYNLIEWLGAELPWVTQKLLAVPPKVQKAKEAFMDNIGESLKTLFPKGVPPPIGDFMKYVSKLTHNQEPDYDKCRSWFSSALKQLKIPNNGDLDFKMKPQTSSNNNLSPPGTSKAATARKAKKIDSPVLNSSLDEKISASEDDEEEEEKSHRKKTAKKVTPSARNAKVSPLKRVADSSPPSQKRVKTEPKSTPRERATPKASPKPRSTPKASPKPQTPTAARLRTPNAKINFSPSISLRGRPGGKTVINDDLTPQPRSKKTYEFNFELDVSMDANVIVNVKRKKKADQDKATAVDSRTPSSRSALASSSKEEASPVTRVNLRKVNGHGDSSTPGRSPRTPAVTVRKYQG
The assay can be described thus: co-IP.

Assay [2] addresses CREB binding protein (CBP) (Drosophila (endogenous in S2 cells)). Description: co-IP.

No constants are given. Whether binding was seen depends on the method and setting. In cells and extracts the contact can be indirect. Binding can be weak; no strength is given. Tags and fused reporters may be left off the sequences shown.

Consider “CREB binding protein (CBP) (Drosophila (endogenous in S2 cells)) (enzyme)”, for which, in assay [1], the binding result is recorded as “binds”.

B1: FLAG-tagged Ballchen (BALL) (enzyme, UniProt Q7KRY6 1-599)
chain: T1 sequence
Turning to B1, the binding result in assay [2] is reported as “binds”.
